# The shares of active, inactive and inconclusive entries below differ from those in the screen. A potency beside an inconclusive call is a rough fit, not a confirmed value. Activity calls are given as the source filed them. Calls come from the whole dose curve; as a rule, active = well fitted activation curve with a large enough effect in the repeat runs; inconclusive = weak or mixed curves; inactive = no such curve, though single readings can be large or run the other way.
# Assay: qHTS assay to identify small molecule agonists of the estrogen related receptor signaling pathway with the pleiotropic PPARgamma coactivator (PGC) (AID 1224823)
# Conditions: ERR/PGC reporter cell line, luciferase agonist mode; series mostly up to 46.1 µM
# Method in brief: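 PGC/ERR reporter cells seeded 6 h, then exposed to compounds (23 nL in DMSO) for 18 h at 37 C. One-Glo luciferase luminescence read after 30 min at room temperature.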
# Potency is the fitted concentration of half-maximal effect.
row,Structure (SMILES),Potency
1,CCCCCCCCCCCCCC(=O)O[C@@H]1[C@@H](C)[C@@]2(O)[C@@H](C=C(CO)C[C@@]3(O)C(=O)C(C)=C[C@@H]23)C2C(C)(C)[C@@]21OC(C)=O (some centres undefined),active: 0.00671 µM
2,CN[C@@H]1C[C@@H](c2ccc(Cl)c(Cl)c2)c2ccccc21,inconclusive: 31 µM [activator]
3,CCNC(=O)[C@H]1O[C@@H](n2cnc3c(N)ncnc32)[C@H](O)C1O (some centres undefined),active: 0.168 µM
4,C#CCOC(=O)C1=CCCN(C)C1,inconclusive: 25.1 µM [activator]
